{"source": "PubChem BioAssay AID1259405 (NCATS, 2018)", "purpose": "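Silenced genes that increase secreted GFP made by CHO cells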 (primary screen)", "system": "Chinese hamster CHO-K1 ovary cells with stable secreted eGFP expression", "reagent": "single siRNA against mouse genes, 0.8 pmol siRNA per well (2 µl of 400 nM stock)", "time to read-out": "3 days", "measurement": "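Percent of the per-plate non-targeting control median for intracellular GFP per well by laser scanning cytometry and for cell viability by ATP luminescence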", "direction": "GFP, % of control: higher = more GFP per well, higher productivity; viability (ATP), % of control: higher = more viable cells (more ATP)", "rule for the call": "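a knock-down is called active if GFP reaches 120% or more of non-targeting control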", "note": "Shown is a random part of about 50,000 reagents tested. About 4,000 of all reagents (8%) count as active. 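Mouse siRNA library applied to hamster cells; one well for each siRNA.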 The numbers tell different reagents against one gene apart."}
{"target gene":"Plppr3","reagent":1,"GFP, % of control":89.2,"viability (ATP), % of control":56.8,"outcome":"inactive"}
{"target gene":"Plppr3","reagent":2,"GFP, % of control":84.3,"viability (ATP), % of control":79.6,"outcome":"inactive"}
{"target gene":"Plppr3","reagent":3,"GFP, % of control":81.8,"viability (ATP), % of control":91.7,"outcome":"inactive"}
{"target gene":"Vgll1","reagent":1,"GFP, % of control":36,"viability (ATP), % of control":40.4,"outcome":"inactive"}
{"target gene":"Vgll1","reagent":2,"GFP, % of control":56.7,"viability (ATP), % of control":50.9,"outcome":"inactive"}
{"target gene":"Vgll1","reagent":3,"GFP, % of control":99,"viability (ATP), % of control":100,"outcome":"inactive"}
{"target gene":"Cpb2","reagent":1,"GFP, % of control":113,"viability (ATP), % of control":109,"outcome":"inactive"}
{"target gene":"Cpb2","reagent":2,"GFP, % of control":94.2,"viability (ATP), % of control":53.4,"outcome":"inactive"}
{"target gene":"Cpb2","reagent":3,"GFP, % of control":139,"viability (ATP), % of control":78.7,"outcome":"active"}
{"target gene":"Krtap31-2","reagent":1,"GFP, % of control":81.6,"viability (ATP), % of control":74.5,"outcome":"inactive"}
{"target gene":"Krtap31-2","reagent":2,"GFP, % of control":74.9,"viability (ATP), % of control":64.4,"outcome":"inactive"}
{"target gene":"Krtap31-2","reagent":3,"GFP, % of control":93.8,"viability (ATP), % of control":65.6,"outcome":"inactive"}
{"target gene":"Gm5084","reagent":1,"GFP, % of control":70.6,"viability (ATP), % of control":69.4,"outcome":"inactive"}
{"target gene":"Gm5084","reagent":2,"GFP, % of control":28,"viability (ATP), % of control":43.5,"outcome":"inactive"}
{"target gene":"Gm5084","reagent":3,"GFP, % of control":58.7,"viability (ATP), % of control":85.7,"outcome":"inactive"}
{"target gene":"Sar1a","reagent":1,"GFP, % of control":77.3,"viability (ATP), % of control":72.7,"outcome":"inactive"}
{"target gene":"Sar1a","reagent":2,"GFP, % of control":28.3,"viability (ATP), % of control":45,"outcome":"inactive"}
{"target gene":"Sar1a","reagent":3,"GFP, % of control":148,"viability (ATP), % of control":76.9,"outcome":"active"}
{"target gene":"Or2ag15","reagent":1,"GFP, % of control":118,"viability (ATP), % of control":87.8,"outcome":"inactive"}
{"target gene":"Or2ag15","reagent":2,"GFP, % of control":88.4,"viability (ATP), % of control":54.6,"outcome":"inactive"}
{"target gene":"Or2ag15","reagent":3,"GFP, % of control":70.3,"viability (ATP), % of control":69.6,"outcome":"inactive"}
{"target gene":"Samd14","reagent":1,"GFP, % of control":37.5,"viability (ATP), % of control":45.9,"outcome":"inactive"}
{"target gene":"Samd14","reagent":2,"GFP, % of control":66.6,"viability (ATP), % of control":91.1,"outcome":"inactive"}
{"target gene":"Samd14","reagent":3,"GFP, % of control":117,"viability (ATP), % of control":129,"outcome":"inactive"}
{"target gene":"Ccnd3","reagent":1,"GFP, % of control":62.2,"viability (ATP), % of control":65.4,"outcome":"inactive"}
{"target gene":"Ccnd3","reagent":2,"GFP, % of control":100,"viability (ATP), % of control":102,"outcome":"inactive"}
{"target gene":"Irak2","reagent":1,"GFP, % of control":51.4,"viability (ATP), % of control":52.3,"outcome":"inactive"}
{"target gene":"Zfp524","reagent":1,"GFP, % of control":74.5,"viability (ATP), % of control":57.3,"outcome":"inactive"}
{"target gene":"Zfp524","reagent":2,"GFP, % of control":61.7,"viability (ATP), % of control":64,"outcome":"inactive"}
{"target gene":"Zfp524","reagent":3,"GFP, % of control":110,"viability (ATP), % of control":88,"outcome":"inactive"}
{"target gene":"Or1ad8","reagent":1,"GFP, % of control":39.7,"viability (ATP), % of control":49.9,"outcome":"inactive"}
{"target gene":"Or1ad8","reagent":2,"GFP, % of control":98.7,"viability (ATP), % of control":68.2,"outcome":"inactive"}
{"target gene":"Or1ad8","reagent":3,"GFP, % of control":79,"viability (ATP), % of control":117,"outcome":"inactive"}
{"target gene":"Tab3","reagent":1,"GFP, % of control":94.4,"viability (ATP), % of control":107,"outcome":"inactive"}
{"target gene":"Tab3","reagent":2,"GFP, % of control":84.4,"viability (ATP), % of control":84.9,"outcome":"inactive"}
{"target gene":"Llph","reagent":1,"GFP, % of control":116,"viability (ATP), % of control":115,"outcome":"inactive"}
{"target gene":"Llph","reagent":2,"GFP, % of control":64.8,"viability (ATP), % of control":69.4,"outcome":"inactive"}
{"target gene":"Llph","reagent":3,"GFP, % of control":98.4,"viability (ATP), % of control":82.1,"outcome":"inactive"}
{"target gene":"Lamp1","reagent":1,"GFP, % of control":82.6,"viability (ATP), % of control":79.8,"outcome":"inactive"}
{"target gene":"Lamp1","reagent":2,"GFP, % of control":86.1,"viability (ATP), % of control":43.1,"outcome":"inactive"}
{"target gene":"Lamp1","reagent":3,"GFP, % of control":64.2,"viability (ATP), % of control":48.8,"outcome":"inactive"}
{"target gene":"Fam117b","reagent":1,"GFP, % of control":95.1,"viability (ATP), % of control":75.9,"outcome":"inactive"}
{"target gene":"Fam117b","reagent":2,"GFP, % of control":96.3,"viability (ATP), % of control":87.3,"outcome":"inactive"}
{"target gene":"Fam117b","reagent":3,"GFP, % of control":119,"viability (ATP), % of control":111,"outcome":"inactive"}
{"target gene":"Esyt1","reagent":1,"GFP, % of control":110,"viability (ATP), % of control":97.5,"outcome":"inactive"}
{"target gene":"Esyt1","reagent":2,"GFP, % of control":105,"viability (ATP), % of control":83.4,"outcome":"inactive"}
{"target gene":"Htr3b","reagent":1,"GFP, % of control":113,"viability (ATP), % of control":111,"outcome":"inactive"}
{"target gene":"Htr3b","reagent":2,"GFP, % of control":123,"viability (ATP), % of control":76.3,"outcome":"active"}
{"target gene":"Htr3b","reagent":3,"GFP, % of control":56.2,"viability (ATP), % of control":77.8,"outcome":"inactive"}
{"target gene":"Zfp809","reagent":1,"GFP, % of control":56.8,"viability (ATP), % of control":39.2,"outcome":"inactive"}
{"target gene":"Zfp809","reagent":2,"GFP, % of control":64.5,"viability (ATP), % of control":58.5,"outcome":"inactive"}
{"target gene":"Zfp809","reagent":3,"GFP, % of control":98.9,"viability (ATP), % of control":88.4,"outcome":"inactive"}

Entries above whose target name starts with G or g (3):
{"target gene":"Gm5084","reagent":1,"GFP, % of control":70.6,"viability (ATP), % of control":69.4,"outcome":"inactive"}
{"target gene":"Gm5084","reagent":2,"GFP, % of control":28,"viability (ATP), % of control":43.5,"outcome":"inactive"}
{"target gene":"Gm5084","reagent":3,"GFP, % of control":58.7,"viability (ATP), % of control":85.7,"outcome":"inactive"}
